Source: PubChem BioAssay AID743458 (Peter MacCallum Cancer Centre, 2014)

- Test: 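Identify genes whose loss lifts vorinostat resistance in colon cancer cells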 (follow-up of hits)
- System: human HCT116-VR colon cancer cells made resistant to vorinostat
- Reagent: single siRNA or pool against human genes, 25 nM per single siRNA
- Duration: about 72 h after transfection, including 24 h of drug
- Conditions: vorinostat, 2.5 µM final, for 24 h
- Measured: 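Cell viability by fluorescence and apoptosis by caspase 3/7 luminescence under vorinostat, background-corrected, averaged across two plate copies and given as fold change versus mock transfection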
- Reading the numbers: viability relative to mock: higher = more living cells than mock; caspase activity relative to mock: higher = more apoptosis than mock
- Call rule: 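An siRNA counts as active if classed as reduced viability or as caspase activation, otherwise inactive; a hit class needed wells that remained healthy in the absence of drug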
The whole screen tested about 1,800 reagents; below is an unselected part. Over the whole deposit, 732 (41%) got an active call. 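Calls are per siRNA reagent; a gene was deemed confirmed only if most of its four siRNAs scored.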 Reagents against one gene are numbered here.

FANCA #1 — viability relative to mock = 0.47; caspase activity relative to mock = 3.85; viability hit class = reduced viability; caspase hit class = caspase activation; call = active
FANCA #2 — viability relative to mock = 0.41; caspase activity relative to mock = 5.49; viability hit class = reduced viability; caspase hit class = caspase activation; call = active
FANCA #3 — viability relative to mock = 0.73; caspase activity relative to mock = 3.09; viability hit class = no change; caspase hit class = caspase activation; call = active
FANCA #4 — viability relative to mock = 0.79; caspase activity relative to mock = 3.79; viability hit class = no change; caspase hit class = caspase activation; call = active
FANCA #5 — viability relative to mock = 0.68; caspase activity relative to mock = 3.4; viability hit class = no change; caspase hit class = caspase activation; call = active
MGA #1 — viability relative to mock = 0.22; caspase activity relative to mock = 2.36; viability hit class = reduced viability; caspase hit class = no change; call = active
MGA #2 — viability relative to mock = 0.4; caspase activity relative to mock = 0.95; viability hit class = reduced viability; caspase hit class = no change; call = active
MGA #3 — viability relative to mock = 0.21; caspase activity relative to mock = 3.17; viability hit class = reduced viability; caspase hit class = caspase activation; call = active
MGA #4 — viability relative to mock = 1; caspase activity relative to mock = 1.21; viability hit class = no change; caspase hit class = no change; call = inactive
NUP85 #1 — viability relative to mock = 1.05; caspase activity relative to mock = 1.66; viability hit class = no change; caspase hit class = no change; call = inactive
NUP85 #2 — viability relative to mock = 1.08; caspase activity relative to mock = 1.16; viability hit class = no change; caspase hit class = no change; call = inactive
NUP85 #3 — viability relative to mock = 0.88; caspase activity relative to mock = 2.89; viability hit class = no change; caspase hit class = caspase activation; call = active
NUP85 #4 — viability relative to mock = 0.96; caspase activity relative to mock = 1.67; viability hit class = no change; caspase hit class = no change; call = inactive
ARL14 #1 — viability relative to mock = 0.5; caspase activity relative to mock = 2.82; viability hit class = reduced viability; caspase hit class = caspase activation; call = active
ARL14 #2 — viability relative to mock = 0.8; caspase activity relative to mock = 1.29; viability hit class = no change; caspase hit class = no change; call = inactive
ARL14 #3 — viability relative to mock = 0.97; caspase activity relative to mock = 1.36; viability hit class = no change; caspase hit class = no change; call = inactive
ARL14 #4 — viability relative to mock = 0.72; caspase activity relative to mock = 1.12; viability hit class = no change; caspase hit class = no change; call = inactive

Part of the list above, set out differently:
| Gene | reagent | viability relative to mock | caspase activity relative to mock | viability hit class | caspase hit class | call |
| --- | --- | --- | --- | --- | --- | --- |
| MGA | 1 | 0.22 | 2.36 | reduced viability | no change | active |
| MGA | 2 | 0.4 | 0.95 | reduced viability | no change | active |
